Measured values reported in patent publication US20240209093A1.
These are yes or no findings as the source states them, for the method shown. Some results given as binding are weak or reduced against the parent protein; the word gives no strength.

The chains behind the UniProt entries cited, without tags or fusion partners. Residues count along the entry.
UniProt Q08722, residues 19-139: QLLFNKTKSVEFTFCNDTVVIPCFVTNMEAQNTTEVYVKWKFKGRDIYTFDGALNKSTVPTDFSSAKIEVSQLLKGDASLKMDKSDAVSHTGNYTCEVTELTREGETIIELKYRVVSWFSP

Molecular target: Tag1-CD47 (UniProt Q08722)
Experiment: HTRF CD47/SIRPα binding assay (Cisbio): blocking of Tag2-SIRPa binding to Tag1-CD47; axis numbers -3 to 3 read as log10 of nM

B1: 34C5 (antibody, V domains shown)
VH: QVQLVQSGAEVKKPGSSVKVSCKASGYTFSSYYMHWVRQAPGQGLEWMGEINPNNARINFNEKFKTRVTLTVDKSTSTAYMELSSLRSEDTAVYYCTRGYYRYGAWFGYWGQGTLVTVSS
VL: DIQMTQSPSSLSASVGDRVTITCRASQDISDYLNWYQQKPGKAPKLLIYYISRLHSGVPSRFSGSGSGTDYTLTISSLQPEDFATYYCQQGHTLPWTFGGGTKVEIK
In the case of B1, the binding is reported as “binds”.
